Reference: the supplement of paper PMC8728848
The other results are listed elsewhere or left out.

Legend:
Assay in all cases: glycan array binding signal (z-score within array); higher = stronger binding
Conditions in all cases: glycan notation: IUPAC condensed, linker removed
Gal6S(b1-4)Glc = biological target: Gal6S(b1-4)Glc
Outline: (§1)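 From the Consortium for Functional Glycomics database, 3228 arrays were curated, keeping only those whose protein sequence was available. Binding is given as a within-array Z-score averaged across arrays sharing a protein sequence and across linkers. Negative Z-scores can be read as non-binding.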

Gal6S(b1-4)Glc6S = biological target: Gal6S(b1-4)Glc6S
Outline: as §1

Gal6S(b1-4)GlcNAc = biological target: Gal6S(b1-4)GlcNAc
Outline: as §1

Gal6S(b1-4)GlcNAc6S = biological target: Gal6S(b1-4)GlcNAc6S
Outline: as §1

GalNAc(a1-3)Gal = biological target: GalNAc(a1-3)Gal
Outline: as §1

GalNAc(a1-3)GalNAc = biological target: GalNAc(a1-3)GalNAc
Outline: as §1

[1] = biological target: GalNAc(a1-3)GalNAc(b1-3)Gal(a1-4)Gal(b1-4)Glc
Outline: as §1

[2] = biological target: GalNAc(a1-3)GalNAc(b1-3)Gal(a1-4)Gal(b1-4)GlcNAc
Outline: as §1

GalNAc(b1-3)Gal = biological target: GalNAc(b1-3)Gal
Outline: as §1

[3] = biological target: GalNAc(b1-3)Gal(a1-4)Gal(b1-4)GlcNAc
Outline: as §1

[4] = biological target: GalNAc(b1-3)Gal(a1-4)Gal(b1-4)GlcNAc(b1-3)Gal(b1-4)Glc
Outline: as §1

[5] = biological target: GalNAc(b1-3)Gal(a1-6)Gal(b1-4)Glc
Outline: as §1

GalNAc(b1-3)GalNAc = biological target: GalNAc(b1-3)GalNAc
Outline: as §1

GalNAc(b1-3)GlcNAc = biological target: GalNAc(b1-3)GlcNAc
Outline: as §1

GalNAc(b1-4)Gal(b1-4)Glc = biological target: GalNAc(b1-4)Gal(b1-4)Glc
Outline: as §1

GalNAc(b1-4)GlcNAc = biological target: GalNAc(b1-4)GlcNAc
Outline: as §1

[6] = biological target: GalNAc(b1-4)GlcNAc(b1-2)Man
Outline: as §1

[7] = biological target: GalNAc(b1-4)GlcNAc(b1-2)Man(a1-3)[GalNAc(b1-4)GlcNAc(b1-2)Man(a1-6)]Man(b1-4)GlcNAc(b1-4)GlcNAc
Outline: as §1

[8] = biological target: GalNAc(b1-4)GlcNAc(b1-3)GalNAc(b1-4)GlcNAc
Outline: as §1

GalNAc(b1-4)GlcNAc6S = biological target: GalNAc(b1-4)GlcNAc6S
Outline: as §1

GalNAc(b1-6)GalNAc = biological target: GalNAc(b1-6)GalNAc
Outline: as §1

GalNAc3S(b1-4)GlcNAc = biological target: GalNAc3S(b1-4)GlcNAc
Outline: as §1

GalNAc3S(b1-4)GlcNAc3S = biological target: GalNAc3S(b1-4)GlcNAc3S
Outline: as §1

[9] = biological target: GalNAc3S(b1-4)[Fuc(a1-3)]GlcNAc
Outline: as §1

GalNAc4S6S(b1-4)GlcNAc = biological target: GalNAc4S6S(b1-4)GlcNAc
Outline: as §1

GalNAc6S(b1-4)GlcNAc = biological target: GalNAc6S(b1-4)GlcNAc
Outline: as §1

Glc(a1-4)Glc = biological target: Glc(a1-4)Glc
Outline: as §1

[10] = biological target: Glc(a1-4)Glc(a1-4)Glc(a1-4)Glc
Outline: as §1

Glc(a1-6)Glc(a1-6)Glc = biological target: Glc(a1-6)Glc(a1-6)Glc
Outline: as §1

[11] = biological target: Glc(a1-6)Glc(a1-6)Glc(a1-6)Glc
Outline: as §1

Glc(b1-4)Glc = biological target: Glc(b1-4)Glc
Outline: as §1

Glc(b1-6)Glc = biological target: Glc(b1-6)Glc
Outline: as §1

GlcA(b1-3)Gal = biological target: GlcA(b1-3)Gal
Outline: as §1

GlcA(b1-3)GlcNAc = biological target: GlcA(b1-3)GlcNAc
Outline: as §1

GlcA(b1-6)Gal = biological target: GlcA(b1-6)Gal
Outline: as §1

[12] = biological target: GlcA3S(b1-3)Gal(b1-4)GlcNAc(b1-2)Man
Outline: as §1

[13] = biological target: GlcA3S(b1-3)Gal(b1-4)GlcNAc(b1-3)Gal(b1-4)Glc
Outline: as §1

[14] = biological target: GlcNAc(a1-3)Gal(b1-4)GlcNAc
Outline: as §1

[15] = biological target: GlcNAc(a1-4)Gal(b1-3)GlcNAc
Outline: as §1

[16] = biological target: GlcNAc(a1-4)Gal(b1-4)GalNAc
Outline: as §1

[17] = biological target: GlcNAc(a1-4)Gal(b1-4)GlcNAc
Outline: as §1

[18] = biological target: GlcNAc(a1-4)Gal(b1-4)GlcNAc(b1-3)Gal(b1-4)Glc
Outline: as §1

[19] = biological target: GlcNAc(a1-4)Gal(b1-4)GlcNAc(b1-3)Gal(b1-4)GlcNAc
Outline: as §1

[20] = biological target: GlcNAc(a1-4)Gal(b1-4)GlcNAc(b1-3)Gal(b1-4)GlcNAc(b1-3)Gal(b1-4)GlcNAc
Outline: as §1

[21] = biological target: GlcNAc(a1-4)Gal(b1-4)GlcNAc(b1-3)Gal(b1-4)[Fuc(a1-3)]GlcNAc(b1-3)Gal(b1-4)[Fuc(a1-3)]GlcNAc
Outline: as §1

B1: LlpA (Burkholderia cenocepacia) (protein)
chain: MGSSHHHHHHSSGLVPRGSHKILGSNETLSAGNVVYSDNGQYHLAMQTDGNLVVYGPTGAVWQSQTSGSGGNRAVMQGDGNLVIYRADNTAAWSSKTAHPGAFLAVQDDGNVVIYWPRPAWASNTSDPATQQSAESKYLASGSTMSAGQTVTVAQYMLVFQADGNLVLYKNGGNPIWSTGTQGKGATYAVMQSDGNFVIYAGSTALWSTKTNGANGAQLVLQSDGNLVIYAPTAAWSTKFGLVTAPTSTSTSNNGPGSGICVGVCPPHPLNGNPFSPVGVGTTGLGFPTPGYPGAAF
glycan array binding signal (z-score) (Gal6S(b1-4)Glc): 0.354 | glycan array binding signal (z-score) (Gal6S(b1-4)Glc6S): -0.409 | glycan array binding signal (z-score) (Gal6S(b1-4)GlcNAc): 0.308 | glycan array binding signal (z-score) (Gal6S(b1-4)GlcNAc6S): 0.441 | glycan array binding signal (z-score) (GalNAc(a1-3)Gal): -0.606 | glycan array binding signal (z-score) (GalNAc(a1-3)GalNAc): -0.51 | glycan array binding signal (z-score) [1]: -0.66 | glycan array binding signal (z-score) [2]: -0.419 | glycan array binding signal (z-score) (GalNAc(b1-3)Gal): -0.11 | glycan array binding signal (z-score) [3]: -0.417 | glycan array binding signal (z-score) [4]: -0.472 | glycan array binding signal (z-score) [5]: 0.819 | glycan array binding signal (z-score) (GalNAc(b1-3)GalNAc): 0.037 | glycan array binding signal (z-score) (GalNAc(b1-3)GlcNAc): -0.95 | glycan array binding signal (z-score) (GalNAc(b1-4)Gal(b1-4)Glc): 1.66 | glycan array binding signal (z-score) (GalNAc(b1-4)GlcNAc): 0.076 | glycan array binding signal (z-score) [6]: -0.899 | glycan array binding signal (z-score) [7]: -0.504 | glycan array binding signal (z-score) [8]: 0.099 | glycan array binding signal (z-score) (GalNAc(b1-4)GlcNAc6S): -0.918 | glycan array binding signal (z-score) (GalNAc(b1-6)GalNAc): -0.842 | glycan array binding signal (z-score) (GalNAc3S(b1-4)GlcNAc): -0.027 | glycan array binding signal (z-score) (GalNAc3S(b1-4)GlcNAc3S): 0.091 | glycan array binding signal (z-score) [9]: 0.017 | glycan array binding signal (z-score) (GalNAc4S6S(b1-4)GlcNAc): -0.004 | glycan array binding signal (z-score) (GalNAc6S(b1-4)GlcNAc): 1.3 | glycan array binding signal (z-score) (Glc(a1-4)Glc): -0.497 | glycan array binding signal (z-score) [10]: 0.386 | glycan array binding signal (z-score) (Glc(a1-6)Glc(a1-6)Glc): -0.468 | glycan array binding signal (z-score) [11]: 0.011 | glycan array binding signal (z-score) (Glc(b1-4)Glc): -0.452 | glycan array binding signal (z-score) (Glc(b1-6)Glc): -1.14 | glycan array binding signal (z-score) (GlcA(b1-3)Gal): -0.071 | glycan array binding signal (z-score) (GlcA(b1-3)GlcNAc): -0.512 | glycan array binding signal (z-score) (GlcA(b1-6)Gal): -0.4 | glycan array binding signal (z-score) [12]: 0.331 | glycan array binding signal (z-score) [13]: -1.62 | glycan array binding signal (z-score) [14]: 0.615 | glycan array binding signal (z-score) [15]: -1.47 | glycan array binding signal (z-score) [16]: -0.6 | glycan array binding signal (z-score) [17]: -0.431 | glycan array binding signal (z-score) [18]: -0.208 | glycan array binding signal (z-score) [19]: 0.019 | glycan array binding signal (z-score) [20]: -0.456 | glycan array binding signal (z-score) [21]: 1.67
